Results from one PubChem assay

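CRE-bla HEK293T reporter cells under cAMP stimulation; the beta-lactamase FRET ratio is measured about 3 hours after compound addition. Each compound was run as a concentration series, mostly reaching a top of 92.4 µM. Fitted potency from the dose curve; a lower value means a more potent compound. Calls come from the whole dose curve: active means a well-fitted inhibition curve with enough effect in repeat runs, inconclusive means weak, mixed or opposite-direction curves, and inactive means a flat curve.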

Values are in nM. All entries here are filed as inconclusive. Only part of the assay is shown, chiefly results filed as inconclusive. A potency from a partial, single-point or poor curve is only a rough figure. Some entries filed as inconclusive have a full curve. The first word of each remark tells which way the curve ran; it can be opposite to the aim of the assay. An entry listed twice with the same setting is a separate test.

| # | structure | potency (nM) | curve |
|---|---|---|---|
| 1 | `CCCCN(CCCC)c1ccc(C(=O)c2ccccc2C(=O)O)c(O)c1` | 10970 | fluorescent, full curve |
| 2 | `CC(C)(C)c1cc([N+](=O)[O-])cc([N+](=O)[O-])c1O` | 43145 | fluorescent, partial curve |
| 3 | `CCOC(=O)c1ccccc1C(=C1C=C(Br)C(=O)C(Br)=C1)c1cc(Br)c(O)c(Br)c1` | 51284 | activator, single point |
| 4 | `CCCCCCCC[N+](CCCCCCCC)(CCCCCCCC)CCCCCCCC` | 43189 | falling, partial curve, poor fit |
| 5 | `CN(C/C=C/c1ccccc1)Cc1cccc2ccccc12` | 29849 | rising, single point |
| 6 | `CN(C)[C@@H]1C(=O)C(C(N)=O)=C(O)[C@@]2(O)C(=O)C3=C(O)c4c(O)ccc(Cl)c4[C@@H](O)[C@H]3C[C@@H]12` | 26603 | rising, partial curve |
| 7 | `CNC(=O)c1cnn(-c2nc(N)c3ncn([C@@H]4O[C@H](CO)[C@@H](O)[C@H]4O)c3n2)c1` | 0.7 | - |
| 8 | `CC(=O)S[C@@H]1CC2=CC(=O)CC[C@]2(C)[C@H]2CC[C@@]3(C)[C@@H](CC[C@@]34CCC(=O)O4)[C@H]12` | 32815 | fluorescent |
| 9 | `CC[C@@H]([C@H](C)O)n1ncn(-c2ccc(N3CCN(c4ccc(OC[C@@H]5CO[C@@](Cn6cncn6)(c6ccc(F)cc6F)C5)cc4)CC3)cc2)c1=O` | 33491 | single point |
| 10 | `CC[C@]1(O)C[C@H]2CN(CCc3c([nH]c4ccccc34)[C@@](C(=O)OC)(c3cc4c(cc3OC)N(C=O)[C@H]3[C@@](O)(C(=O)OC)[C@H](OC(C)=O)[C@]5(CC)C=CCN6CC[C@]43[C@@H]65)C2)C1` | 16785 | fluorescent, partial curve, poor fit |
| 11 | `Clc1ccccc1C(c1ccccc1)(c1ccccc1)n1ccnc1` | 16785 | fluorescent, partial curve, poor fit |
| 12 | `CC(C)c1c(C(=O)Nc2ccccc2)c(-c2ccccc2)c(-c2ccc(F)cc2)n1CC[C@@H](O)C[C@@H](O)CC(=O)O` | 26603 | activator, partial curve |
| 13 | `C=C[C@H]1CN2CC[C@H]1C[C@@H]2[C@@H](O)c1ccnc2ccc(OC)cc12` | 53597 | activator |
| 14 | `O=[N+]([O-])c1cc(C2CCCCC2)c(O)c([N+](=O)[O-])c1` | 24262 | fluorescent |
| 15 | `CCOC(=O)C(C)Oc1ccc(Oc2cnc3cc(Cl)ccc3n2)cc1` (stereo not shown) | 45473 | fluorescent |
| 16 | `CC(=O)O[C@]1(C(C)=O)CC[C@H]2[C@@H]3C=C(Cl)C4=CC(=O)[C@@H]5C[C@@H]5[C@]4(C)[C@H]3CC[C@@]21C` | 28545 | fluorescent, partial curve |
| 17 | `O=Nc1ccc(Nc2ccccc2)cc1` | 45240 | inhibitor, single point |
| 18 | `O=c1[nH]c2ccccc2n1C1CCN(CCCC(c2ccc(F)cc2)c2ccc(F)cc2)CC1` | 61130 | fluorescent, partial curve |
| 19 | `CC(C)OC(=O)C(O)(c1ccc(Cl)cc1)c1ccc(Cl)cc1` | 30637 | full curve |
| 20 | `[Hg+2].[I-].[I-]` | 5448 | full curve |
| 21 | `CCCC(C(=O)OCCN(CC)CC)(c1ccccc1)c1ccccc1` | 26603 | - |
| 22 | `CN[C@H]1CC[C@@H](c2ccc(Cl)c(Cl)c2)c2ccc(S(N)(=O)=O)cc21` | 68589 | single point |
| 23 | `CCCCOCCOCCOCc1cc2c(cc1CCC)OCO2` | 61877 | fluorescent |
| 24 | `CCCCCCCC[N+](C)(CCCCCCCC)CCCCCCCC` | 9688 | fluorescent, partial curve |
| 25 | `CCCCC/C=C\C/C=C\CCCCCCCC(=O)O` | 45240 | fluorescent, partial curve |
| 26 | `O=C1Nc2ccc(Cl)cc2[C@@](C#CC2CC2)(C(F)(F)F)O1` | 21131 | partial curve |
| 27 | `CC1=C(C(=O)OC(C)C)C(c2cccc([N+](=O)[O-])c2)C(C(=O)OC2CN(C(c3ccccc3)c3ccccc3)C2)=C(N)N1` (stereo not shown) | 33491 | inhibitor, single point |
| 28 | `COc1cc(C(=O)NC2CCN(C)CC2)ccc1Nc1ncc2c(n1)N(C1CCCC1)CC(F)(F)C(=O)N2C` | 58564 | fluorescent, single point |
| 29 | `O=C1NCCN1CCN1CCC(c2cn(-c3ccc(F)cc3)c3ccc(Cl)cc23)CC1` | 29849 | fluorescent |
| 30 | `CCCCC/C=C\C/C=C\CCCCCCCC(=O)O` | 53597 | fluorescent, partial curve |
| 31 | `Nc1c2ccccc2nc2ccccc12` | 34912 | - |
| 32 | `CCOC(=O)COc1ccc2c(c1)CC(NCC(O)c1cccc(Cl)c1)CC2` (stereo not shown) | 54906 | fluorescent |
| 33 | `Oc1ccc(O)cc1` | 30637 | activator, partial curve, poor fit |
| 34 | `CCCOCC(=Nc1ccc(Cl)cc1C(F)(F)F)n1ccnc1` | 27278 | rising, full curve, poor fit |
| 35 | `CC(=O)OCC(=O)[C@@]1(OC(C)=O)[C@@H](C)C[C@H]2[C@@H]3C[C@H](F)C4=CC(=O)C=C[C@]4(C)[C@@]3(F)[C@@H](O)C[C@@]21C` | 26603 | fluorescent, partial curve, poor fit |
| 36 | `Nc1nc(N)c2nc(-c3ccccc3)c(N)nc2n1` | 30101 | activator, full curve |
| 37 | `CCC(C)Nc1ccc(NC(C)CC)cc1` (stereo not shown) | 62313 | rising, partial curve |
| 38 | `ClC(Cl)=C(c1ccc(Cl)cc1)c1ccc(Cl)cc1` | 68589 | activator, partial curve, poor fit |
| 39 | `CCCCOCC1CO1` (stereo not shown) | 14306 | inhibitor, single point |
| 40 | `CCN(Cc1cccc(S(=O)(=O)O)c1)c1ccc(C(=C2C=CC(=[N+](CC)Cc3cccc(S(=O)(=O)[O-])c3)C=C2)c2ccccc2)cc1` | 54041 | activator, single point |
| 41 | `O=c1oc2ccccc2c(O)c1C(CC(O)c1ccc(-c2ccc(Br)cc2)cc1)c1ccccc1` (stereo not shown) | 25840 | fluorescent, partial curve |
| 42 | `Nc1nc(N)c2nc(-c3ccccc3)c(N)nc2n1` | 25440 | activator, partial curve |
| 43 | `Nc1ccc(C(=O)N2CC3CC(CN(Cc4ccccc4)C3)C2)cc1` | 6682 | fluorescent, partial curve |
| 44 | `CCCC(c1cc(C(C)(C)C)c(O)cc1C)c1cc(C(C)(C)C)c(O)cc1C` | 77898 | cytotoxic, single point |

Once more, the final 5:

* CCN(Cc1cccc(S(=O)(=O)O)c1)c1ccc(C(=C2C=CC(=[N+](CC)Cc3cccc(S(=O)(=O)[O-])c3)C=C2)c2ccccc2)cc1 | potency 54041 nM (activator, single point)
* O=c1oc2ccccc2c(O)c1C(CC(O)c1ccc(-c2ccc(Br)cc2)cc1)c1ccccc1 (stereo not shown) | potency 25840 nM (fluorescent, partial curve)
* Nc1nc(N)c2nc(-c3ccccc3)c(N)nc2n1 | potency 25440 nM (activator, partial curve)
* Nc1ccc(C(=O)N2CC3CC(CN(Cc4ccccc4)C3)C2)cc1 | potency 6682 nM (fluorescent, partial curve)
* CCCC(c1cc(C(C)(C)C)c(O)cc1C)c1cc(C(C)(C)C)c(O)cc1C | potency 77898 nM (cytotoxic, single point)

The results are deposited in PubChem (AID1963591; Tox21, 2024).